Reference: PubChem BioAssay AID720540 (National Center for Advancing Translational Sciences (NCATS), 2013)
Hit rate of the full screen: of about 1,300 compounds, about 460 (35%) were called active. The inconclusive results got no clear call from the source; some entries with a clear call stand among them for comparison. The call rests on the fitted dose curve; in most records, active means well fitted inhibition curve with a large enough effect; inconclusive means small, poorly fitted or top-dose-only effect; inactive means flat fitted curve, though single readings scatter. Potencies beside an inconclusive call are fits to weak or partial responses and may not hold up.

Chains of the proteins cited; added tags and fusions are not shown. Lines headed by an entry give the natural chain unless they say otherwise; changes in a name come on top.
UniProt O00167: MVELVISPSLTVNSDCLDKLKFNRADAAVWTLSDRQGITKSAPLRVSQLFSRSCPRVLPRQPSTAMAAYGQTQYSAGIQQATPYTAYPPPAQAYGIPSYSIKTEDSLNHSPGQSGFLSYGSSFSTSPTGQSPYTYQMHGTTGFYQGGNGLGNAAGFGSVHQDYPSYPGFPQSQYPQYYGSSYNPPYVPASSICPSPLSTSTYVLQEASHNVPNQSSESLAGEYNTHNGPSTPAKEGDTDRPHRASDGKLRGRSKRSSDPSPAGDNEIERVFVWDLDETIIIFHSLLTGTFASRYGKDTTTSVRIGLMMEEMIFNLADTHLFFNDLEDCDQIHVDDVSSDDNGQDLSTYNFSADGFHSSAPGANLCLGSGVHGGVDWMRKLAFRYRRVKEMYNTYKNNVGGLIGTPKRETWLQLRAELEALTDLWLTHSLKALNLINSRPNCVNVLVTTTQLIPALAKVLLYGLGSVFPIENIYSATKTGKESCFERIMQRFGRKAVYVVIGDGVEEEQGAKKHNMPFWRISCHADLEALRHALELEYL

These compounds were tested against Protein phosphatase EYA2 (Homo sapiens) (UniProt O00167) (assay: qHTS for Inhibitors of the Phosphatase Activity of Eya2: Confirmatory Assay for Cherry-picked Compounds). Conditions: purified EYA2 phosphatase activity, qHTS confirmation; series mostly up to 46.1 µM.
Outline: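 Eya2 (0.2 uM working solution) preincubated 10 min at room temperature with compound in pH 7.5 HEPES buffer with MgCl2, BSA, DTT. OMFP added (50 uM working solution), 10 min more; fluorescence 485/525 nm, normalized to EGTA and DMSO.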
Further: nearly all actives have a fitted effect of over 65% in size.
Potency means the concentration at half of the fitted maximal effect.

Structure (SMILES) | Potency
O=c1cc(CSc2ccc(Cl)cc2)nc(-c2ccccn2)[nH]1 | active: 2.13 µM
CSc1cccc(NC(=O)CCCOc2cc(=O)n(C)c3ccccc23)c1 | inactive
COc1ccc(N2CCN(Cc3cc4c(cc3Br)OCCO4)CC2)cc1 | active: 15.1 µM
O=S(=O)(Nc1cccc(-c2cn3cccnc3n2)c1)c1ccc(F)cc1 | active: 13.5 µM
COc1ccc(C(=O)Nc2cc(OC)c(NC(=O)Nc3ccccc3)cc2OC)cc1 | inactive
O=C(CSc1nnc(-c2ccco2)c(-c2ccco2)n1)c1ccccc1 | inconclusive: 13.5 µM [inhibitor, partial curve]
Cc1ccccc1-c1cnc(C(O)c2c(C)cccc2C)[nH]1 (stereo unspecified) | inactive
COc1ccc(C(=O)Nc2nc(-c3ccccn3)cs2)cc1S(=O)(=O)N1CCOCC1 | active: 1.51 µM
COCc1cc(=O)n2[nH]c(-c3ccsc3-n3c(C)ccc3C)cc2n1 | inconclusive: 13.5 µM [inhibitor, partial curve]
CCC1Cc2c(nc(N)c3c(N)nc(N4CCOCC4)c(C#N)c23)O1 (stereo unspecified) | inconclusive: 13.5 µM [inhibitor, partial curve]
CC(=O)Nc1ccc2nc(C3CC3)n(Cc3ccc(Cl)cc3)c(=O)c2c1 | inactive
CCOc1ccc2c(c1)-c1c(ssc1=S)C(C)(C)N2C(=O)CSC1=NCCS1 | active: 16.9 µM
COc1ccc(C(=O)CC(=O)Nc2ccc([N+](=O)[O-])cc2)cc1 | inactive
O=[N+]([O-])c1ccc(/C=C2\C=C(C(O)c3ccc([N+](=O)[O-])cc3)c3ccccc32)cc1 (stereo unspecified) | inconclusive: 8.49 µM [inhibitor, partial curve]
COc1ccc(OC)c(/C=C2\SC(=S)N(NS(=O)(=O)c3ccccc3)C2=O)c1 | inconclusive: 21.3 µM [inhibitor, partial curve]
COc1cccc(C2c3[nH]c4ccccc4c3CCN2Cc2cnn(C)c2)c1 (stereo unspecified) | inconclusive: 13.5 µM [inhibitor, partial curve]
O=S(=O)(O)c1ccc(O)c2cc(Nc3ccccc3)ccc12 | active: 7.57 µM
O=C(Nc1ccc(S(=O)(=O)Nc2ncccn2)cc1)C1=NN(c2ccccc2)C(=O)CC1 | inconclusive: 21.3 µM [inhibitor, partial curve]
CN1C(=O)NC(c2ccccc2)(C(F)(F)F)S/C1=C(/C#N)c1nnc(N2CCOCC2)n1-c1ccccc1 (stereo unspecified) | inactive
CCCC[C@@]1(C2CCCC2)Cc2cc(OCC(=O)O)c(Cl)c(Cl)c2C1=O | inactive
O=C1C=C(Nc2ccc(O)cc2)C(=O)c2ccccc21 | inconclusive: 7.57 µM [inhibitor, partial curve]

Fetched by compound from the entries so far (two):
Structure (SMILES) | Potency
CCCC[C@@]1(C2CCCC2)Cc2cc(OCC(=O)O)c(Cl)c(Cl)c2C1=O | inactive
O=c1cc(CSc2ccc(Cl)cc2)nc(-c2ccccn2)[nH]1 | active: 2.13 µM
